Measurements taken from the supplement of paper PMC10849652.
The list shows a part of the results.

The chains behind the UniProt entries cited, without tags or fusion partners. Where a name states a change or a piece, a line headed by the entry shows the natural chain unless it says otherwise.
UniProt Q01650: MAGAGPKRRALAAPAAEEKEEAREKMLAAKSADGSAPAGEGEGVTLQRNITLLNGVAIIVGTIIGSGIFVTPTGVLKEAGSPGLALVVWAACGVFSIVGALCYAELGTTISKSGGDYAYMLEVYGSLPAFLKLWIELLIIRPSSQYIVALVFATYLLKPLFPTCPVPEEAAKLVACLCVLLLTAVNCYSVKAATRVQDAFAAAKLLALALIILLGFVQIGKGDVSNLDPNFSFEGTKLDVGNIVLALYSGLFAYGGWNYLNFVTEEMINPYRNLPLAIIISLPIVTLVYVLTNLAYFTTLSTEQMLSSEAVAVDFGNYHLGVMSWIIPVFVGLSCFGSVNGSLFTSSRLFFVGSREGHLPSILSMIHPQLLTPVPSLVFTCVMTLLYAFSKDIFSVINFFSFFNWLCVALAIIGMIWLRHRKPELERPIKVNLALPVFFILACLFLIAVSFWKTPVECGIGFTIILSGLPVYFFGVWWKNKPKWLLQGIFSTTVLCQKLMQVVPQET
UniProt Q9NYZ2: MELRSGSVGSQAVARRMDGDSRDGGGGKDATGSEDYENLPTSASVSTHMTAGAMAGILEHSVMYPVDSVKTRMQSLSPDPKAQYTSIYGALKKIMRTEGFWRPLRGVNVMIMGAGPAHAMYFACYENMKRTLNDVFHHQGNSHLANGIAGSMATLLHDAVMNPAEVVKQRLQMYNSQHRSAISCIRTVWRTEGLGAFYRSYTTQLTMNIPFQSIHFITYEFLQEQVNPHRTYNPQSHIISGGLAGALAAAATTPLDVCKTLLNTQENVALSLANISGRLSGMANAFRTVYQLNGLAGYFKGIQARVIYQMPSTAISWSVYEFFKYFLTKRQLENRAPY
UniProt Q99808: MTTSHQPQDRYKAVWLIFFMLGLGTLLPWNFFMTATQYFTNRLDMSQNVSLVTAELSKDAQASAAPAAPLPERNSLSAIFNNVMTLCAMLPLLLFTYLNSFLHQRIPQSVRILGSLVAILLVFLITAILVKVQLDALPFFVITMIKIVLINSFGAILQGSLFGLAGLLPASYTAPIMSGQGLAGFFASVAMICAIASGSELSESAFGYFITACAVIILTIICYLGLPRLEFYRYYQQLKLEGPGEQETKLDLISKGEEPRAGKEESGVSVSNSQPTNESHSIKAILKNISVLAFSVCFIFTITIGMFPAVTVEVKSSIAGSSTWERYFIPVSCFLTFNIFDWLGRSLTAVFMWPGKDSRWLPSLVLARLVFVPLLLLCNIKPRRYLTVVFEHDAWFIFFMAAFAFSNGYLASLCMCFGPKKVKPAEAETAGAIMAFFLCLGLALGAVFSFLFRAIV
UniProt Q9UJS0: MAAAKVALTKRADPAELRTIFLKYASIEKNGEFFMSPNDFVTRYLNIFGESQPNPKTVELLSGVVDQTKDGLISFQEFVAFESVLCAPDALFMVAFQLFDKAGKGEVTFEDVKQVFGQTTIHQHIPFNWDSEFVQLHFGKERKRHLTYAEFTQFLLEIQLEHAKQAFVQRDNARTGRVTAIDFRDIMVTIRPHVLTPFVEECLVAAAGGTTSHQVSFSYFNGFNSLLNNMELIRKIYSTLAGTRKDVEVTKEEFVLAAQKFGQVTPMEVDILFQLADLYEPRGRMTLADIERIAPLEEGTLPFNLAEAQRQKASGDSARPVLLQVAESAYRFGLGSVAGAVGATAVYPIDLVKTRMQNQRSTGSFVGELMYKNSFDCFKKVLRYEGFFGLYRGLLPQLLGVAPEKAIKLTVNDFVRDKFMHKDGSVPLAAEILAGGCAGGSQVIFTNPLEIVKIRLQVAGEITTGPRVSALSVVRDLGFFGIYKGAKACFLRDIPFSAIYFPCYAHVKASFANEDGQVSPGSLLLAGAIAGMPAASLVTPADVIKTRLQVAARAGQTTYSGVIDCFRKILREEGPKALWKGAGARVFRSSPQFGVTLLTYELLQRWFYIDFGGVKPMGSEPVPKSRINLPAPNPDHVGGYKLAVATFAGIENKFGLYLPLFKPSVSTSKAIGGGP
UniProt O43772: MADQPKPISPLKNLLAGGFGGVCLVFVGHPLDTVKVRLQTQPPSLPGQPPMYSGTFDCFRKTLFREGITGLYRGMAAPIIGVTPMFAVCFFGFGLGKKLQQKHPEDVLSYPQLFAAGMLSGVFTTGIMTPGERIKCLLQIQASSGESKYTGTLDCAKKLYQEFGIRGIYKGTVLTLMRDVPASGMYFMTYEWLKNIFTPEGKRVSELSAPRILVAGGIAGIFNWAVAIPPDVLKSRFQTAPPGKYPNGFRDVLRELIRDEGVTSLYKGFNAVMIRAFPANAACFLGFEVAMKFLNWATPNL
UniProt P55011: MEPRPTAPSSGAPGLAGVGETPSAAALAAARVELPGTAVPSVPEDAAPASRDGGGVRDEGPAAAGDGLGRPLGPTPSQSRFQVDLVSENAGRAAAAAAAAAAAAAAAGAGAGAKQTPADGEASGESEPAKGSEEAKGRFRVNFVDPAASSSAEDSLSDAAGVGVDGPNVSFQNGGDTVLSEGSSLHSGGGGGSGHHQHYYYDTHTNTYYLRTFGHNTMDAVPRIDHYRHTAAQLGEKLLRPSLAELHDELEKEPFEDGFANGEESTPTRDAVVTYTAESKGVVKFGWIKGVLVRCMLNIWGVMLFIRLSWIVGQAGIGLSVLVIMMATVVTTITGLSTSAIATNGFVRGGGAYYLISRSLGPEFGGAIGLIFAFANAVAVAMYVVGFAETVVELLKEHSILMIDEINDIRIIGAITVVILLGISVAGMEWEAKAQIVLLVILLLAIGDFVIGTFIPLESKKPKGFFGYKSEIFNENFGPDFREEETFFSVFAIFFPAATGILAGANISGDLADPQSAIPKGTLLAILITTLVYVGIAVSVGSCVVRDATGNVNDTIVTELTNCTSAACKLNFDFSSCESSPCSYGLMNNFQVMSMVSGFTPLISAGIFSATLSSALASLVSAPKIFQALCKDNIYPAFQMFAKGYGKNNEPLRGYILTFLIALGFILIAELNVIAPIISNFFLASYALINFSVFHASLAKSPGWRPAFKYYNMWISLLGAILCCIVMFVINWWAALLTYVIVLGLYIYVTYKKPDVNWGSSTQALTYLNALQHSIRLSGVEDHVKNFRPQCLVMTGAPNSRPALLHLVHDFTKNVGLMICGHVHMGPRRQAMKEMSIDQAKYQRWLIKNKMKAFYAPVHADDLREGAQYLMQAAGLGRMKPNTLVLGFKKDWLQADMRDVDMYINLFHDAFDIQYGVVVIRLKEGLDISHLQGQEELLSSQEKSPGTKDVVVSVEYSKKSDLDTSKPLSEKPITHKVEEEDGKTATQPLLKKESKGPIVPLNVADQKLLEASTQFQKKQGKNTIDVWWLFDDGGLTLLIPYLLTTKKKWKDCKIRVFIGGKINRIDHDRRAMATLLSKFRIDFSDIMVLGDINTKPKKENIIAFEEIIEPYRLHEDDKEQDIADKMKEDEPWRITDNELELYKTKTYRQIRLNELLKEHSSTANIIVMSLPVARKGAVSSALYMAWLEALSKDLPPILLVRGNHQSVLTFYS
UniProt P05141: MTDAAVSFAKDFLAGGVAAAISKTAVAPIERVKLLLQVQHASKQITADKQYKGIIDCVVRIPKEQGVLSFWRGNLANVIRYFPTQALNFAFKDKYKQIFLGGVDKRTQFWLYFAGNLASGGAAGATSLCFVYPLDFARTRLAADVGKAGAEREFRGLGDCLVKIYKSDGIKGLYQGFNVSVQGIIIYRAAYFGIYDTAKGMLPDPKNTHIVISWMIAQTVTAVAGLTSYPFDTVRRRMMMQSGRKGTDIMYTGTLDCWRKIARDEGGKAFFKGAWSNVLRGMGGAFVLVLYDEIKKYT
UniProt Q6PML9: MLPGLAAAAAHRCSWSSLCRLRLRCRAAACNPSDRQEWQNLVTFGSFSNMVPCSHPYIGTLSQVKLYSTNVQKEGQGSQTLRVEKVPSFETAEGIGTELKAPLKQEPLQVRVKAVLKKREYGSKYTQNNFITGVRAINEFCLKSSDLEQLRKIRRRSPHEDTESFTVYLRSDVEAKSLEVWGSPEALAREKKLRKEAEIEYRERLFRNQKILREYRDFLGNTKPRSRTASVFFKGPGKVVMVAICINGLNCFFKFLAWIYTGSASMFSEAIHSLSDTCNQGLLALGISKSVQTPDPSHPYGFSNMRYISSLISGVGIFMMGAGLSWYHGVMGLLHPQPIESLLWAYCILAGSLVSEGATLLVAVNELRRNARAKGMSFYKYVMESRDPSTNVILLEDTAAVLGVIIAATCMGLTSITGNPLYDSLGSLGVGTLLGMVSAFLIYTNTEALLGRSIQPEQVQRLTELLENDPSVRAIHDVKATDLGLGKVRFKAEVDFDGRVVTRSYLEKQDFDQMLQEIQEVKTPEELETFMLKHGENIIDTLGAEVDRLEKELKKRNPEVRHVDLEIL
UniProt Q9H0C2: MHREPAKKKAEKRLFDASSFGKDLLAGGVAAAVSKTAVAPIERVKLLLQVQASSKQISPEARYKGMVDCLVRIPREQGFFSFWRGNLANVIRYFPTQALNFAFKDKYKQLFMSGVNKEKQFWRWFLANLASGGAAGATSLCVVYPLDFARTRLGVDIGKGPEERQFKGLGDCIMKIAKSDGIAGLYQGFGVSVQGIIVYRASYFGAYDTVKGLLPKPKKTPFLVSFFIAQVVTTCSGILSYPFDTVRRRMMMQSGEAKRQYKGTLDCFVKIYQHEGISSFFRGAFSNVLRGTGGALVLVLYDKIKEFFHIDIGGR
UniProt O00400: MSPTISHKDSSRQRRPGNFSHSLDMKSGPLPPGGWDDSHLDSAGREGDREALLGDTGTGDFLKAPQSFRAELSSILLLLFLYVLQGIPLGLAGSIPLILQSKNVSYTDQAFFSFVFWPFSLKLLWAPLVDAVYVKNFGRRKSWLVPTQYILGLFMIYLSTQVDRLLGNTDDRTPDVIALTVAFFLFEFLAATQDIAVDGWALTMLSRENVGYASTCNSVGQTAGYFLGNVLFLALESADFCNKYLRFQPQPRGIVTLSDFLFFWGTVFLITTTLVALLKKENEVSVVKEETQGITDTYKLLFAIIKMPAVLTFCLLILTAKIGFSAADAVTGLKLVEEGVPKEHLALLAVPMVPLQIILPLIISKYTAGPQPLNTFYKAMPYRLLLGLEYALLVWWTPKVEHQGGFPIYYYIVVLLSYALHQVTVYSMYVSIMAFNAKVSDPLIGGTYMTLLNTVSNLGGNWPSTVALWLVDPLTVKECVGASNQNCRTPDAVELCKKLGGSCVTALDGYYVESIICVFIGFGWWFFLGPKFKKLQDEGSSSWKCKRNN
UniProt Q96EP9: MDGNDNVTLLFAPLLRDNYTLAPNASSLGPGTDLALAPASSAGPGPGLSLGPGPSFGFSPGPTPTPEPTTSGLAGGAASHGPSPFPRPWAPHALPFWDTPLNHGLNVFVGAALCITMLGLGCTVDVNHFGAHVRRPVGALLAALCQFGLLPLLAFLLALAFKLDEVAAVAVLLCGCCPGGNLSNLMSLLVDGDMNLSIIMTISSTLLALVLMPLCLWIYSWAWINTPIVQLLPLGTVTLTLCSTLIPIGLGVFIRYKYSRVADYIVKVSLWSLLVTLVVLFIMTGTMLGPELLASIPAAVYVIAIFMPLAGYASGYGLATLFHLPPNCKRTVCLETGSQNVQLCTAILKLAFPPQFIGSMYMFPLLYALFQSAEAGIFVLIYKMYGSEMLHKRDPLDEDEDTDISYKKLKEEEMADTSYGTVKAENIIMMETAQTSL
UniProt Q8TAD4: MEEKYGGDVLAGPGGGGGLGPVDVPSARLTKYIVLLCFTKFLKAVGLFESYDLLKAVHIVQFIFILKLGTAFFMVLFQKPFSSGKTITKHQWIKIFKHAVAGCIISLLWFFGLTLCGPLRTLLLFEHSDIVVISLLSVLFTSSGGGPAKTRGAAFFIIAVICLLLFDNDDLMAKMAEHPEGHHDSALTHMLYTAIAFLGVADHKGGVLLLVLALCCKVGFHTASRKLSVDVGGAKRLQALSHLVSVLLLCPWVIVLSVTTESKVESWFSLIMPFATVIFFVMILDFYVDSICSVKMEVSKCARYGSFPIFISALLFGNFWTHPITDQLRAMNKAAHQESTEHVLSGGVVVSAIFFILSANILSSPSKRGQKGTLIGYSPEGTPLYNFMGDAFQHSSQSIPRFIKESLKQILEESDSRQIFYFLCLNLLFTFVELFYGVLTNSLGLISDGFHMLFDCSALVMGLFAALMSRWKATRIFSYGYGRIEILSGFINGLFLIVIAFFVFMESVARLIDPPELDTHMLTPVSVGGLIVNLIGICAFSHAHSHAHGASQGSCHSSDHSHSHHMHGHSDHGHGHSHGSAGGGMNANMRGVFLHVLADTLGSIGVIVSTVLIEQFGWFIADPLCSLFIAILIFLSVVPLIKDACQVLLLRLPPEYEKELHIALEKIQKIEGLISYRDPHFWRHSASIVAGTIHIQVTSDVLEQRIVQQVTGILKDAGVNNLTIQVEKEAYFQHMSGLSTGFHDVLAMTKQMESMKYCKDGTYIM

Tests used:
Assay in all cases: log2 fold change, soluble protein after heating vs DMSO (PISA); higher = thermal stabilisation; K562 cells, 10 uM, 30 min; active = over 0.2 and 3.5 SD of the protein, either way, in both replicates (recomputed)
[1] = compound: CC[C@@H]1C(=O)N(C)c2cnc(Nc3ccc(C(=O)NC4CCN(C)CC4)cc3OC)nc2N1C1CCCC1
How it was run: (§1)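 Aliquots of K562 cells (2×10^6 cells/mL) treated with 10 μM compound for 30 min were heated for 3 min over 48°C-58°C. After pooling and extraction in PBS with 0.5% NP-40 at 4°C, soluble protein from a 21,000xg, 90 min spin was quantified by TMTpro 16plex LC-MS/MS with channel sums equalised. Thermal stability is expressed against control samples, from duplicates, as a log2 fold change.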

[2] = compound: CC[C@@H]1C(=O)N(C)c2cnc(Nc3ccc(C(=O)N[C@H]4CC[C@H](N5CCN(CC6CC6)CC5)CC4)cc3OC)nc2N1C(C)C [volasertib]
How it was run: as §1

[3] = compound: CC[C@H](C)N1C=C(C2=C(C=C(C=C21)C3=CN=C(C=C3)N4CCNCC4)C(=O)NCC5=C(C=C(NC5=O)C)C)C
How it was run: as §1

[4] = compound: CC[C@H](C)[C@@H](C(=O)N[C@@H]([C@@H](C)O)C(=O)N[C@@H](CC(C)C)C(=O)[C@]1(CO1)C)NC(=O)[C@H]([C@@H](C)CC)N(C)C(=O)C [epoxomicin]
How it was run: as §1

[5] = compound: CCn1c(C(=O)N(C2CC2)C2CC2)cc2c3c(ncn3C)c(Nc3cc(C)n(C)n3)nc21
How it was run: as §1

[6] = compound: CCn1cc(-c2ccnc3[nH]c(-c4cccc(CN(C)C)c4)cc23)c(-c2ccc(NC(=O)N(C)C)cc2)n1
How it was run: as §1

[7] = compound: CN(C)CC(=O)Nc1ccc2[nH]c(=O)c3ccccc3c2c1
How it was run: as §1

[8] = compound: CN(CCOC1=CC=C(C=C1)C[C@H]2C(=O)NC(=O)S2)C3=CC=CC=N3 (racemic) [rosiglitazone]
How it was run: as §1

[9] = compound: CN1C2=C(C3=C1C(=O)N(N=C3)CC4=CC(=CC=C4)N)SC(=C2)S(=O)C
How it was run: as §1

[10] = compound: CN1CCC(CNc2ccc3ncc(-c4cccc(OC(F)(F)F)c4)n3n2)CC1
How it was run: as §1

[11] = compound: CN1CCN(CCOc2cc(OC3CCOCC3)c3c(Nc4c(Cl)ccc5c4OCO5)ncnc3c2)CC1 [saracatinib]
How it was run: as §1

[12] = compound: CN1CCN(c2nc(C3=C(c4c[nH]c5ccccc45)C(=O)NC3=O)c3ccccc3n2)CC1 [sotrastaurin]
How it was run: as §1

[13] = compound: CN1CC[C@H](c2c(O)cc(O)c3c(=O)cc(-c4ccccc4Cl)oc23)[C@H](O)C1 [alvocidib]
How it was run: as §1

[14] = compound: CN1CCc2c(c3ccccc3n2Cc2ccc(C(=O)NO)cc2)C1 [Tubastatin A]
How it was run: as §1

[15] = compound: CNC(=O)C1=CC=CC=C1NC2=NC(=NC=C2Cl)NC3=C(C=C(C=C3)N4CCOCC4)OC
How it was run: as §1

[16] = compound: CNC(=O)c1ccc(Nc2ncc(C(F)(F)F)c(NCc3nccnc3N(C)S(C)(=O)=O)n2)cc1 [defactinib]
How it was run: as §1

[17] = compound: CNCc1ccc(-c2[nH]c3cc(F)cc4c3c2CCNC4=O)cc1 [rucaparib]
How it was run: as §1

[18] = compound: CNc1nc(-c2ccc3c(N)n[nH]c3c2)cc(N2C[C@@H](C(=O)NC3CCCCC3)CC[C@H]2C)n1
How it was run: as §1

[19] = compound: COC(=O)N[C@@H](C)CNc1nccc(-c2cn(C(C)C)nc2-c2cc(Cl)cc(NS(C)(=O)=O)c2F)n1 [encorafenib]
How it was run: as §1

[20] = compound: COC(=O)[C@H](CCSC)NC(=O)C1=C(C=C(C=C1)NC[C@H](CS)N)C2=CC=CC=C2
How it was run: as §1

Measured: log2 fold change

SLC25A25 isoform 3 (UniProt Q6KCM7)
inactive: [1] 0.052 | [2] 0.007 | [3] -0.022 | [4] 0.007 | [5] 0.026 | [6] -0.027 | [7] -0.055 | [8] -0.013 | [9] -0.027 | [10] 0.054 | [11] 0.022 | [12] 0.002 | [13] -0.004 | [14] -0.012 | [15] -0.021 | [16] -0.033 | [17] -0.061 | [18] -0.051 | [19] 0.017 | [20] 0.001

SLC39A8 (UniProt Q9C0K1)
inactive: [1] -0.022 | [2] -0.077 | [3] -0.044 | [4] 0.079 | [5] 0.043 | [6] -0.083 | [7] 0.05 | [8] 0.014 | [9] -0.051 | [10] 0.006 | [11] 0.093 | [12] 0.028 | [13] 0.017 | [14] -0.004 | [15] 0.033 | [16] 0.034 | [17] -0.186 | [18] -0.07 | [19] -0.026 | [20] 0.05

SLC43A1 (UniProt O75387)
inactive: [1] 0.025 | [2] -0.006 | [3] 0.024 | [4] -0.011 | [5] 0.062 | [6] -0.059 | [7] 0.015 | [8] 0.004 | [9] -0.159 | [10] 0.062 | [11] 0.066 | [12] 0.037 | [13] -0.083 | [14] 0.036 | [15] -0.05 | [16] -0.122 | [17] 0.059 | [18] 0.06 | [19] -0.041 | [20] 0.048

SLC7A5 (UniProt Q01650)
inactive: [1] 0.043 | [2] -0.102 | [3] -0.105 | [4] -0.11 | [5] 0.029 | [6] -0.026 | [7] 0.018 | [8] 0.032 | [9] -0.136 | [10] 0.153 | [11] 0.062 | [12] -0.029 | [13] -0.017 | [14] -0.008 | [15] -0.039 | [16] -0.077 | [17] -0.064 | [18] 0.053 | [19] 0.029 | [20] -0.021

SLC25A37 (UniProt Q9NYZ2)
inactive: [1] 0.079 | [2] 0.032 | [3] -0.039 | [4] -0.025 | [5] 0.008 | [6] 0.003 | [7] -0.04 | [8] -0.065 | [9] -0.028 | [10] 0.094 | [11] 0.169 | [12] 0.12 | [13] 0.086 | [14] 0.044 | [15] -0.039 | [16] -0.075 | [17] 0.05 | [18] 0.008 | [19] -0.057 | [20] 0.025

SLC39A7 (UniProt Q92504)
inactive: [1] 0.004 | [2] 0.094 | [3] -0.042 | [4] -0.075 | [5] 0.081 | [6] -0.02 | [7] -0.057 | [8] -0.049 | [9] 0.003 | [10] 0.073 | [11] 0 | [12] 0.057 | [13] 0.058 | [14] -0.012 | [15] -0.037 | [16] 0.043 | [17] -0.013 | [18] -0.163 | [19] -0.006 | [20] 0.078

SLC29A1 isoform 2 (UniProt Q99808)
inactive: [1] 0.18 | [2] -0.044 | [3] -0.07 | [4] -0.029 | [5] 0.068 | [6] -0.01 | [7] 0.006 | [8] -0.02 | [9] -0.109 | [10] 0.061 | [11] 0.024 | [12] 0.072 | [13] -0.015 | [14] -0.046 | [15] -0.034 | [16] -0.084 | [17] -0.021 | [18] 0.069 | [19] -0.004 | [20] -0.01

SLC25A13 isoform 2 (UniProt Q9UJS0)
inactive: [1] -0.006 | [2] 0.012 | [3] -0.031 | [4] -0.021 | [5] 0.012 | [6] 0.03 | [7] 0.001 | [8] 0.01 | [9] -0.005 | [10] 0.055 | [11] 0.018 | [12] 0.046 | [13] -0.002 | [14] -0.004 | [15] -0.008 | [16] -0.012 | [17] 0.007 | [18] -0.016 | [19] -0.014 | [20] 0.018

SLC25A20 (UniProt O43772)
inactive: [1] 0.062 | [2] 0.01 | [3] -0.056 | [4] -0.029 | [5] 0.02 | [6] 0.001 | [7] -0.017 | [8] 0.001 | [9] -0.003 | [10] 0.107 | [11] 0.032 | [12] 0.032 | [13] -0.006 | [14] -0.067 | [15] -0.015 | [16] 0.001 | [17] -0.02 | [18] -0.016 | [19] 0.022 | [20] 0.026

SLC12A2 (UniProt P55011)
inactive: [1] 0.053 | [2] 0.005 | [3] 0 | [4] -0.014 | [5] 0.017 | [6] -0.066 | [7] -0.012 | [8] 0.011 | [9] -0.065 | [10] 0.138 | [11] 0.051 | [12] 0.024 | [13] -0.05 | [14] -0.012 | [15] -0.067 | [16] -0.011 | [17] -0.004 | [18] 0.041 | [19] 0.005 | [20] 0.003

2 successive entries from above, for reference:
SLC25A20 (UniProt O43772)
inactive: [1] 0.062 | [2] 0.01 | [3] -0.056 | [4] -0.029 | [5] 0.02 | [6] 0.001 | [7] -0.017 | [8] 0.001 | [9] -0.003 | [10] 0.107 | [11] 0.032 | [12] 0.032 | [13] -0.006 | [14] -0.067 | [15] -0.015 | [16] 0.001 | [17] -0.02 | [18] -0.016 | [19] 0.022 | [20] 0.026

SLC12A2 (UniProt P55011)
inactive: [1] 0.053 | [2] 0.005 | [3] 0 | [4] -0.014 | [5] 0.017 | [6] -0.066 | [7] -0.012 | [8] 0.011 | [9] -0.065 | [10] 0.138 | [11] 0.051 | [12] 0.024 | [13] -0.05 | [14] -0.012 | [15] -0.067 | [16] -0.011 | [17] -0.004 | [18] 0.041 | [19] 0.005 | [20] 0.003

(cont.)

SLC25A5 (UniProt P05141)
inactive: [1] -0.049 | [2] 0.159 | [3] 0.022 | [4] -0.055 | [5] 0.013 | [6] 0.011 | [7] -0.032 | [8] 0.013 | [9] -0.06 | [10] 0.1 | [11] 0.069 | [12] 0.05 | [13] -0.065 | [14] -0.023 | [15] 0.022 | [16] -0.018 | [17] 0.013 | [18] 0.009 | [19] -0.056 | [20] 0.004

SLC30A9 (UniProt Q6PML9)
inactive: [1] 0.065 | [2] 0.018 | [3] 0.021 | [4] 0.016 | [5] -0.039 | [6] -0.01 | [7] 0.045 | [8] -0.033 | [9] -0.083 | [10] -0.058 | [11] -0.004 | [12] 0.053 | [13] -0.063 | [14] -0.016 | [15] 0.01 | [16] -0.083 | [17] -0.033 | [18] 0.013 | [19] 0.028 | [20] -0.017

SLC25A31 (UniProt Q9H0C2)
inactive: [1] 0.01 | [2] 0.063 | [3] -0.044 | [4] 0.009 | [5] 0.018 | [6] -0.021 | [7] -0.013 | [8] -0.008 | [9] -0.024 | [10] 0.048 | [11] 0.08 | [12] 0.035 | [13] -0.039 | [14] -0.01 | [15] -0.038 | [16] -0.006 | [17] -0.018 | [18] -0.026 | [19] -0.027 | [20] 0.027

SLC33A1 (UniProt O00400)
inactive: [1] 0.064 | [2] -0.01 | [3] -0.015 | [4] -0.017 | [5] 0.01 | [6] -0.017 | [7] 0.025 | [8] 0.033 | [9] -0.018 | [10] 0.007 | [11] 0.004 | [12] -0.083 | [13] -0.05 | [14] -0.016 | [15] 0.016 | [16] -0.044 | [17] -0.099 | [18] -0.068 | [19] 0.029 | [20] -0.055

SLC10A4 (UniProt Q96EP9)
inactive: [1] 0.103 | [2] 0.003 | [3] -0.087 | [4] -0.048 | [5] 0.01 | [6] 0.105 | [7] -0.096 | [8] 0.009 | [9] 0.142 | [10] -0.033 | [11] -0.026 | [12] 0.051 | [13] 0.024 | [14] -0.078 | [15] -0.019 | [16] 0.036 | [17] -0.055 | [18] -0.029 | [19] 0.009 | [20] 0.011

SLC30A5 (UniProt Q8TAD4)
inactive: [1] -0.011 | [2] -0.055 | [3] 0.017 | [4] 0.013 | [5] 0.019 | [6] 0.001 | [7] 0 | [8] 0.168 | [9] 0.002 | [10] 0.135 | [11] -0.022 | [12] 0.08 | [13] -0.089 | [14] 0 | [15] -0.1 | [16] -0.108 | [17] -0.05 | [18] 0.015 | [19] 0.049 | [20] -0.028
